Data reported in article PMC5435703 (Scientific Reports, 2017).

Test system: MRSA BAA-1707
Assay: MIC assay with metal(II) cation co-treatment
Format: cell-based, Staphylococcus aureus

C[C@H]1c2cccc(O)c2C(=O)C2=C(O)[C@]3(O)C(=O)C(C(N)=O)=C(O)[C@@H](N(C)C)[C@@H]3[C@@H](O)[C@@H]21 [Doxy., Doxycycline, reference compound]
fold elevated MIC with iron(II) co-treatment (MRSA BAA-1707, 200 µM iron(II)): 4 fold
fold reduction in MIC with zinc(II) co-treatment (MRSA BAA-1707, 200 µM zinc(II)): 2 fold
